PubChem BioAssay AID1259405 | NCATS – 2018

- Test: 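Silenced genes that increase secreted GFP made by CHO cells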 (primary screen)
- System: Chinese hamster CHO-K1 ovary cells with stable secreted eGFP expression
- Reagent: single siRNA against mouse genes, 0.8 pmol siRNA per well (2 µl of 400 nM stock)
- Time to read-out: 3 days
- Measured: 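Percent of the per-plate non-targeting control median for intracellular GFP per well by laser scanning cytometry and for cell viability by ATP luminescence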
- Reading the numbers: GFP, % of control: higher = more GFP per well, higher productivity; viability (ATP), % of control: higher = more viable cells (more ATP)
- Hit rule: 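Called active when intracellular GFP, relative to negative control, is at or above 120%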
Shown is an unselected part of about 50,000 reagents tested. About 4,000 of all reagents (8%) count as active. 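Mouse siRNA library applied to hamster cells; one well for each siRNA.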 The numbers tell different reagents against one gene apart.

| gene | reagent | GFP, % of control | viability (ATP), % of control | Call |
| --- | --- | --- | --- | --- |
| Atp9b | 1 | 93.4 | 118 | inactive |
| Atp9b | 2 | 72.6 | 91.9 | inactive |
| Atp9b | 3 | 81.9 | 80.3 | inactive |
| Park7 | 1 | 92.5 | 72.8 | inactive |
| Park7 | 2 | 62.8 | 65.8 | inactive |
| Apbb3 | 1 | 88.4 | 72.9 | inactive |
| Apbb3 | 2 | 70.6 | 89.9 | inactive |
| Apbb3 | 3 | 84.3 | 71.2 | inactive |
| Bcl2a1c | 1 | 66.9 | 54.9 | inactive |
| Bcl2a1c | 2 | 69.6 | 83.5 | inactive |
| Bcl2a1c | 3 | 43.1 | 32.1 | inactive |
| Tm7sf3 | 1 | 54.6 | 84.2 | inactive |
| Tm7sf3 | 2 | 122 | 120 | active |
| Tm7sf3 | 3 | 133 | 140 | active |
| Or8g2b | 1 | 85 | 56.7 | inactive |
| Or8g2b | 2 | 88.6 | 78.4 | inactive |
| Or8g2b | 3 | 60.1 | 47.2 | inactive |
| Slc26a3 | 1 | 45.9 | 49.1 | inactive |
| Slc26a3 | 2 | 98.7 | 87.2 | inactive |
| Slc26a3 | 3 | 76.7 | 88.6 | inactive |
| Or10ak12 | 1 | 67.9 | 60.2 | inactive |
| Or10ak12 | 2 | 112 | 83.7 | inactive |
| Or10ak12 | 3 | 103 | 77.8 | inactive |
| Catsperg2 | 1 | 135 | 129 | active |
| Catsperg2 | 2 | 181 | 122 | active |
| Catsperg2 | 3 | 64.9 | 60.6 | inactive |
| 2310057M21Rik | 1 | 79.4 | 83.6 | inactive |
| 2310057M21Rik | 2 | 39.5 | 41.2 | inactive |
| 2310057M21Rik | 3 | 70.1 | 79.2 | inactive |
| Trib2 | 1 | 95.6 | 98.1 | inactive |
| Trib2 | 2 | 59.2 | 72.4 | inactive |
| Trib2 | 3 | 102 | 75.5 | inactive |
| Rab10os | 1 | 103 | 112 | inactive |
| Rab10os | 2 | 74 | 90.2 | inactive |
| Rab10os | 3 | 95.4 | 102 | inactive |
| Pkmyt1 | 1 | 68.9 | 74.1 | inactive |

Entries listed so far whose target name begins with S or s (3):
| gene | reagent | GFP, % of control | viability (ATP), % of control | Call |
| --- | --- | --- | --- | --- |
| Slc26a3 | 1 | 45.9 | 49.1 | inactive |
| Slc26a3 | 2 | 98.7 | 87.2 | inactive |
| Slc26a3 | 3 | 76.7 | 88.6 | inactive |

The results go on.
| gene | reagent | GFP, % of control | viability (ATP), % of control | Call |
| --- | --- | --- | --- | --- |
| Dsg2 | 1 | 80 | 87.3 | inactive |
| Dsg2 | 2 | 108 | 86 | inactive |
| Mllt6 | 1 | 48.1 | 40.6 | inactive |
| Mllt6 | 2 | 92.5 | 71.5 | inactive |
| Mllt6 | 3 | 118 | 115 | inactive |
| Rsl24d1 | 1 | 69.2 | 82.2 | inactive |
| Rsl24d1 | 2 | 112 | 74.4 | inactive |
| Rsl24d1 | 3 | 164 | 93 | active |
| Pgpep1 | 1 | 65.4 | 73.1 | inactive |
| Pgpep1 | 2 | 42.9 | 27.4 | inactive |
| Pgpep1 | 3 | 112 | 65.8 | inactive |
| Nell1 | 1 | 93.1 | 71.2 | inactive |
| Nell1 | 2 | 88.8 | 92.2 | inactive |
| Nell1 | 3 | 58.5 | 65.8 | inactive |
| Zfp958 | 1 | 71.2 | 102 | inactive |
| Zfp958 | 2 | 46.8 | 58.9 | inactive |
| Zfp958 | 3 | 86.7 | 87.1 | inactive |
| Rab6b | 1 | 137 | 128 | active |
| Rab6b | 2 | 62.2 | 44.7 | inactive |
| Rab6b | 3 | 60.1 | 85.2 | inactive |
| Itfg2 | 1 | 80.5 | 92.8 | inactive |
| Itfg2 | 2 | 81.8 | 72.7 | inactive |
| Itfg2 | 3 | 58.2 | 76.3 | inactive |
| Nipa2 | 1 | 63.1 | 81.7 | inactive |
| Nipa2 | 2 | 80.6 | 85.6 | inactive |
| Nipa2 | 3 | 94.4 | 95.2 | inactive |
| Cavin2 | 1 | 19.2 | 32 | inactive |
| Cavin2 | 2 | 84 | 93.6 | inactive |
| Cavin2 | 3 | 146 | 34.6 | active |
| Metap2 | 1 | 111 | 87.4 | inactive |
| Metap2 | 2 | 62.5 | 56.6 | inactive |
| Metap2 | 3 | 41.5 | 36.2 | inactive |
| Fbxo32 | 1 | 71.2 | 57.7 | inactive |
| Fbxo32 | 2 | 58.7 | 59.7 | inactive |
| Fbxo32 | 3 | 125 | 88.6 | active |
| Top3a | 1 | 81.2 | 110 | inactive |
| Top3a | 2 | 91.6 | 95.6 | inactive |
| Vmn1r58 | 1 | 79.7 | 82.7 | inactive |
| Vmn1r58 | 2 | 75.2 | 67.6 | inactive |
| Vmn1r58 | 3 | 54.2 | 70.8 | inactive |
| Ssmem1 | 1 | 22.6 | 65 | inactive |
| Ssmem1 | 2 | 37.6 | 47.7 | inactive |
| Ssmem1 | 3 | 85.6 | 80.5 | inactive |
| Nob1 | 1 | 155 | 71.1 | active |
| Nob1 | 2 | 58.6 | 60.9 | inactive |
| Nob1 | 3 | 94.2 | 51.5 | inactive |
| Gm11545 | 1 | 179 | 176 | active |
| Gm11545 | 2 | 97.1 | 96.8 | inactive |
| Gm11545 | 3 | 59.6 | 82.4 | inactive |
